PubChem BioAssay AID1259314 | Drosophila RNAi Screening Center – 2017
This is an unselected part of about 3,100 deposited reagents. Of all reagents, 289 (9.3%) were called active. 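Active includes both higher and lower ATP than plate average; check the z-score sign for direction.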 A plus sign joins genes that one reagent is predicted to hit. Reagent sequences are not shown. The record does not give: the amount of reagent.

- Purpose: 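Genes whose knock-down alters cell survival under toxic manganese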 (primary screen)
- Cell system: Drosophila S2R+ cells
- Knock-down reagent: long dsRNA against Drosophila genes
- Time to read-out: 5 days (4 days knock-down, then 1 day metal exposure)
- Challenge: manganese chloride added to 15 mM for 24 hours
- Measurement: 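Luciferase ATP signal used as a proxy for viable cell number, reported as one averaged z-score per dsRNA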
- Scale: mean ATP z-score: higher = more ATP than the plate average, more viable cells under manganese
- Rule for the call: 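a mean ATP z-score past 1.5 in either direction is called active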
- Calls: active = strong ATP change, up or down; inactive = no strong ATP change

The first 6 entries, to show the layout:
no.	target gene	amplicon	mean ATP z-score	activity call
1	Vmat + CG13330	DRSC06365	-0.206	inactive
2	Vmat + CG13330	DRSC28600	1.53	active
3	CG16825 (GeneID 34739)	DRSC02526	-0.735	inactive
4	CG16825 (GeneID 34739)	DRSC39689	-0.161	inactive
5	l(2)03659 (GeneID 47905)	DRSC07269	-0.248	inactive
6	l(2)03659 (GeneID 47905)	DRSC07638	-0.724	inactive

The listing, from the start:
no.	target gene	amplicon	mean ATP z-score	activity call
1	Vmat + CG13330	DRSC06365	-0.206	inactive
2	Vmat + CG13330	DRSC28600	1.53	active
3	CG16825 (GeneID 34739)	DRSC02526	-0.735	inactive
4	CG16825 (GeneID 34739)	DRSC39689	-0.161	inactive
5	l(2)03659 (GeneID 47905)	DRSC07269	-0.248	inactive
6	l(2)03659 (GeneID 47905)	DRSC07638	-0.724	inactive
7	CG17660 (GeneID 33347)	DRSC00513	-0.56	inactive
8	CG17660 (GeneID 33347)	DRSC39552	-0.202	inactive
9	mAChR-A (GeneID 37892)	DRSC28262	0.369	inactive
10	CG6125 (GeneID 41882)	DRSC15970	-0.269	inactive
11	fz4 (GeneID 31659)	DRSC18780	-0.545	inactive
12	MstProx + Mst84Da	DRSC12597	0.343	inactive
13	Rift (GeneID 43756)	DRSC14330	1.27	inactive
14	CG6484 (GeneID 36994)	DRSC06991	-0.167	inactive
15	CG6484 (GeneID 36994)	DRSC28087	-0.463	inactive
16	CG14439 (GeneID 31614)	DRSC17931	-0.555	inactive
17	CG14439 (GeneID 31614)	DRSC39551	-0.521	inactive
18	Best3 (GeneID 39661)	DRSC09880	-1.45	inactive
19	Best3 (GeneID 39661)	DRSC39740	-0.41	inactive
20	btl (GeneID 39564)	DRSC11331	-0.791	inactive
21	btl (GeneID 39564)	DRSC36653	0.14	inactive
22	btl (GeneID 39564)	DRSC36654	-0.319	inactive
23	CG1632 (GeneID 31763)	DRSC17558	1.19	inactive
24	CG1632 (GeneID 31763)	DRSC18110	0.326	inactive
25	Nup154 (GeneID 34527)	DRSC26396	-0.891	inactive
26	Mdr50 (GeneID 36582)	DRSC07467	-0.94	inactive
27	Mdr50 (GeneID 36582)	DRSC23705	-0.781	inactive
28	Eph (GeneID 43803)	DRSC17164	-0.327	inactive
29	Eph (GeneID 43803)	DRSC36767	0.329	inactive
30	Eph (GeneID 43803)	DRSC36768	0.298	inactive
31	GPHR (GeneID 36682)	DRSC07075	-0.193	inactive
32	GPHR (GeneID 36682)	DRSC39570	0.743	inactive
33	Scgdelta (GeneID 31129)	DRSC18544	3.41	active
34	ppk22 (GeneID 318593)	DRSC22093	0.659	inactive
35	CG10345 (GeneID 42017)	DRSC14138	-0.582	inactive
36	ABCB7 (GeneID 38193)	DRSC08603	1.67	active
37	nAChRalpha7 (GeneID 32928)	DRSC20078	1.5	inactive
38	nAChRalpha7 (GeneID 32928)	DRSC20081	1.37	inactive
39	CG10353 (GeneID 32148)	DRSC19354	-0.338	inactive
40	CG10353 (GeneID 32148)	DRSC29888	0.0724	inactive
41	CG4907 (GeneID 42686)	DRSC15673	0.167	inactive
42	CG4907 (GeneID 42686)	DRSC39746	-0.364	inactive
43	Mdr65 (GeneID 38726)	DRSC11220	-0.402	inactive
44	ZnT35C (GeneID 34890)	DRSC01959	-0.667	inactive
45	ZnT35C (GeneID 34890)	DRSC39419	6.89	active
46	AstC-R1 (GeneID 40020)	DRSC10799	0.226	inactive
47	AstC-R1 (GeneID 40020)	DRSC29648	-0.248	inactive
48	promL (GeneID 38372)	DRSC08733	1.15	inactive
49	mew (GeneID 32275)	DRSC18971	-0.341	inactive
50	mew (GeneID 32275)	DRSC20352	-0.636	inactive
51	ppk30 (GeneID 43487)	DRSC15302	0.101	inactive
52	ppk30 (GeneID 43487)	DRSC39594	-0.0726	inactive
53	gb (GeneID 43265)	DRSC15961	-0.113	inactive
54	gb (GeneID 43265)	DRSC24834	0.532	inactive
55	CG14856 (GeneID 41790)	DRSC14980	-0.0746	inactive
56	Dscam1 (GeneID 35652)	DRSC07407	1.52	active
57	Dscam1 (GeneID 35652)	DRSC21562	-0.361	inactive
58	Dscam1 (GeneID 35652)	DRSC29101	0.538	inactive
59	AstA-R1 (GeneID 44126)	DRSC17278	-0.671	inactive
60	AstA-R1 (GeneID 44126)	DRSC17727	0.084	inactive
61	CG8237 (GeneID 35891)	DRSC07119	0.827	inactive
62	CG8237 (GeneID 35891)	DRSC26686	-1.35	inactive
63	CG42340 (GeneID 7354472)	DRSC18305	0.199	inactive
64	CG42340 (GeneID 7354472)	DRSC23657	0.552	inactive
65	mGluR (GeneID 43838)	DRSC17215	0.57	inactive
66	mGluR (GeneID 43838)	DRSC39626	0.432	inactive
67	CG31183 (GeneID 41927)	DRSC14403	1.42	inactive
68	CG31183 (GeneID 41927)	DRSC15554	-0.569	inactive
69	Gr28b (GeneID 117496)	DRSC02291	0.0737	inactive
70	Gr28b (GeneID 117496)	DRSC02292	-1.05	inactive
71	Gr28b (GeneID 117496)	DRSC29459	0.478	inactive
72	Gr22a (GeneID 117500)	DRSC26809	1.21	inactive
73	Or85b (GeneID 41007)	DRSC16765	-0.459	inactive
74	Or85b (GeneID 41007)	DRSC39611	-0.286	inactive
75	CG11438 (GeneID 40469)	DRSC11660	-1.34	inactive
76	CG11438 (GeneID 40469)	DRSC36909	-0.424	inactive
77	Scgalpha (GeneID 34135)	DRSC03076	-0.732	inactive
78	Scgalpha (GeneID 34135)	DRSC29625	0.0897	inactive
79	Or67c (GeneID 39189)	DRSC11242	-1.15	inactive
80	Or67c (GeneID 39189)	DRSC39762	-1.58	active
81	CG6231 (GeneID 42339)	DRSC15997	-0.208	inactive
82	CG33116 (GeneID 326259)	DRSC02045	-0.326	inactive
83	CG6149 (GeneID 39277)	DRSC10593	-0.579	inactive
84	Zip102B (GeneID 43786)	DRSC26001	-1.29	inactive
85	Zip102B (GeneID 43786)	DRSC39739	0.533	inactive
86	nebu (GeneID 39458)	DRSC09807	-1.1	inactive
87	nebu (GeneID 39458)	DRSC09808	-0.37	inactive
88	CG44153 (GeneID 34341)	DRSC02228	0.312	inactive
89	CG44153 (GeneID 34341)	DRSC02902	0.361	inactive
90	CG44153 (GeneID 34341)	DRSC02903	-0.759	inactive
91	CG11898 (GeneID 43451)	DRSC27906	1.06	inactive
92	CG11898 (GeneID 43451)	DRSC39534	-0.382	inactive
93	Ddr (GeneID 3346209)	DRSC02150	0.211	inactive
94	Ddr (GeneID 3346209)	DRSC03229	0.31	inactive
95	Ddr (GeneID 3346209)	DRSC22818	0.137	inactive
96	Poxm + Ctr1B	DRSC16245	-1.39	inactive
97	Poxm + Ctr1B	DRSC39592	0.0565	inactive
98	CG31522 (GeneID 40567)	DRSC12005	1.46	inactive
99	CG31522 (GeneID 40567)	DRSC29792	1.31	inactive
100	mthl5 (GeneID 41438)	DRSC16155	-0.751	inactive
101	mthl5 (GeneID 41438)	DRSC39532	-0.617	inactive
102	TyrR (GeneID 42136)	DRSC16242	0.112	inactive
103	TyrR (GeneID 42136)	DRSC39601	-0.179	inactive
104	Lcch3 + Ranbp16	DRSC39860	-0.941	inactive
105	Corin (GeneID 35691)	DRSC28927	-0.13	inactive
106	Corin (GeneID 35691)	DRSC39613	-0.24	inactive
107	lbm (GeneID 35623)	DRSC07643	1.9	active
108	lbm (GeneID 35623)	DRSC39509	0.857	inactive
109	CG13248 (GeneID 40254)	DRSC11696	-0.515	inactive
110	CG13248 (GeneID 40254)	DRSC24446	0.104	inactive
111	sei (GeneID 37843)	DRSC29359	-1.07	inactive
112	Tsp42Eg (GeneID 35616)	DRSC06112	1.13	inactive
113	CG43795 (GeneID 5740629)	DRSC04192	3.34	active
114	CG43795 (GeneID 5740629)	DRSC04310	1.05	inactive
115	CG43795 (GeneID 5740629)	DRSC26752	-0.571	inactive
116	Or46a + asRNA:CR43467	DRSC07490	-0.649	inactive
117	Or46a + asRNA:CR43467	DRSC21590	0.416	inactive
118	Or46a + asRNA:CR43467	DRSC29654	-0.627	inactive
119	ppk24 (GeneID 43702)	DRSC15093	-0.395	inactive
120	ppk24 (GeneID 43702)	DRSC39805	-0.99	inactive
121	Or30a (GeneID 34236)	DRSC03385	3.08	active
122	Or30a (GeneID 34236)	DRSC39556	0.467	inactive
123	CG12376 (GeneID 35857)	DRSC29464	-0.464	inactive
124	CG12376 (GeneID 35857)	DRSC39520	0.895	inactive
125	CG15814 (GeneID 32765)	DRSC19730	-0.103	inactive
126	CG15814 (GeneID 32765)	DRSC39869	0.85	inactive
127	Vmat (GeneID 3346192)	DRSC22223	-0.751	inactive
128	Nup58 (GeneID 42342)	DRSC16235	1.64	active
129	Nup58 (GeneID 42342)	DRSC27863	0.16	inactive
130	Sema1b (GeneID 37007)	DRSC07550	-0.696	inactive
131	Sema1b (GeneID 37007)	DRSC27552	-0.368	inactive
132	SecCl (GeneID 39949)	DRSC10887	-0.956	inactive
133	SecCl (GeneID 39949)	DRSC39894	-0.33	inactive
134	subdued (GeneID 42340)	DRSC15137	-0.138	inactive
135	subdued (GeneID 42340)	DRSC39505	0.111	inactive
136	Hsepi (GeneID 35569)	DRSC04986	-1.13	inactive
137	Hsepi (GeneID 35569)	DRSC26089	-1.48	inactive
138	CG3397 (GeneID 41454)	DRSC15487	3.15	active
139	CG3397 (GeneID 41454)	DRSC39547	-0.0429	inactive
140	AdipoR (GeneID 42656)	DRSC15767	-0.742	inactive
141	AdipoR (GeneID 42656)	DRSC39443	0.54	inactive
